Reference: the supplement of paper PMC12067093, “Discovery and optimisation of a covalent ligand for TRIM25 and its application to targeted protein ubiquitination” (Chemical Science, 2025)
The list shows a part of the results.

The chains behind the UniProt entries cited, without tags or fusion partners. Where a name states a change or a piece, a line headed by the entry shows the natural chain unless it says otherwise.
UniProt P52789: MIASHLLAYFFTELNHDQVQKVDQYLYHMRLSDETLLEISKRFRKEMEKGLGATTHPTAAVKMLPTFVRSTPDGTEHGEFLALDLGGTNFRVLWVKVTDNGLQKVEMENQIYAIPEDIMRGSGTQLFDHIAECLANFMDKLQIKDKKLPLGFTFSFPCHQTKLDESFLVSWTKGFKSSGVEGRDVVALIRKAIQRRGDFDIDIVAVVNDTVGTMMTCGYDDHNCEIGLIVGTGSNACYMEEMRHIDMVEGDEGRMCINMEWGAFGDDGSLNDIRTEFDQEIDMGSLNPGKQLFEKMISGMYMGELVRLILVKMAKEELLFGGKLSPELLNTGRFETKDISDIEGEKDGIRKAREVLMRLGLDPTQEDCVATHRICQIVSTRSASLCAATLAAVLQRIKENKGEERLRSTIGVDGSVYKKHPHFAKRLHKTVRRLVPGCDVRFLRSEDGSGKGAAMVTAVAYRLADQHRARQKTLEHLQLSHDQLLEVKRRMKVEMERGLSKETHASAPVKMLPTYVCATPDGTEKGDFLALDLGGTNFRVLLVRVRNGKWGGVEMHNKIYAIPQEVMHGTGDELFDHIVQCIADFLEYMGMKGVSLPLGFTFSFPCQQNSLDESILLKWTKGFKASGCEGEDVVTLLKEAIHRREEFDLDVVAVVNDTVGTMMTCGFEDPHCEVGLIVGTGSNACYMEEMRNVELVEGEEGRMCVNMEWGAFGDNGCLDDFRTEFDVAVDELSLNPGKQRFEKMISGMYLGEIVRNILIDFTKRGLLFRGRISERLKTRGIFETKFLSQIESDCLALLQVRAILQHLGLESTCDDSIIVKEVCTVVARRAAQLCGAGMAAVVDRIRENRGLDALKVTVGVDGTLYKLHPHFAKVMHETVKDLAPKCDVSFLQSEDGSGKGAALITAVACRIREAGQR
UniProt P56524: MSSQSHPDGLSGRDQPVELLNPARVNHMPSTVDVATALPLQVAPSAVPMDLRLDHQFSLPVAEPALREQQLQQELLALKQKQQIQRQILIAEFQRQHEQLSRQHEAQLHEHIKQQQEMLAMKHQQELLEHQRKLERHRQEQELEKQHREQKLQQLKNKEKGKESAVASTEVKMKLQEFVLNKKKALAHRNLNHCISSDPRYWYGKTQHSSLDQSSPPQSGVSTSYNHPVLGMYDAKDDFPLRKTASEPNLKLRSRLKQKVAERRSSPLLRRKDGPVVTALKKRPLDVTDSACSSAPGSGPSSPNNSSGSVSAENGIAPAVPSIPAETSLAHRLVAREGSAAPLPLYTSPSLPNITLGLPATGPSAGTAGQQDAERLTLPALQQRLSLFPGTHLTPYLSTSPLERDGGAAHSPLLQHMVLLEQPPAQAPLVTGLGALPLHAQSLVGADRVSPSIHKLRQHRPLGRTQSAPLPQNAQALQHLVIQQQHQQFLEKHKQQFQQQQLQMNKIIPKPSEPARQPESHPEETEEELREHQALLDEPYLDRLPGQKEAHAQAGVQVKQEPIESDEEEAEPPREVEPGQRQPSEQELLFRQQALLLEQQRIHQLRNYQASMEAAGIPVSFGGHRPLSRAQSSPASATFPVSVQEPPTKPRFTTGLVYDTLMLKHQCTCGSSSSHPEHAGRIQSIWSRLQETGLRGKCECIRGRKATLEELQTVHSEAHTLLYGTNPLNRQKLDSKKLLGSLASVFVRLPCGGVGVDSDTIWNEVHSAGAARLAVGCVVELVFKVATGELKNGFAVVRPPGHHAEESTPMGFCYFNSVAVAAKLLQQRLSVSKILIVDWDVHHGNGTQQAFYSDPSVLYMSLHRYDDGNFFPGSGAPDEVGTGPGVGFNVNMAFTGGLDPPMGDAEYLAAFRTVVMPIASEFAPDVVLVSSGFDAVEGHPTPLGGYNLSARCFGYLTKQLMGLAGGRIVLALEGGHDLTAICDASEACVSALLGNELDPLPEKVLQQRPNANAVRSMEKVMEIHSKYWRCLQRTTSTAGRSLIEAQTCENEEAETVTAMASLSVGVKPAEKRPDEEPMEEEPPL
UniProt Q9P2D3: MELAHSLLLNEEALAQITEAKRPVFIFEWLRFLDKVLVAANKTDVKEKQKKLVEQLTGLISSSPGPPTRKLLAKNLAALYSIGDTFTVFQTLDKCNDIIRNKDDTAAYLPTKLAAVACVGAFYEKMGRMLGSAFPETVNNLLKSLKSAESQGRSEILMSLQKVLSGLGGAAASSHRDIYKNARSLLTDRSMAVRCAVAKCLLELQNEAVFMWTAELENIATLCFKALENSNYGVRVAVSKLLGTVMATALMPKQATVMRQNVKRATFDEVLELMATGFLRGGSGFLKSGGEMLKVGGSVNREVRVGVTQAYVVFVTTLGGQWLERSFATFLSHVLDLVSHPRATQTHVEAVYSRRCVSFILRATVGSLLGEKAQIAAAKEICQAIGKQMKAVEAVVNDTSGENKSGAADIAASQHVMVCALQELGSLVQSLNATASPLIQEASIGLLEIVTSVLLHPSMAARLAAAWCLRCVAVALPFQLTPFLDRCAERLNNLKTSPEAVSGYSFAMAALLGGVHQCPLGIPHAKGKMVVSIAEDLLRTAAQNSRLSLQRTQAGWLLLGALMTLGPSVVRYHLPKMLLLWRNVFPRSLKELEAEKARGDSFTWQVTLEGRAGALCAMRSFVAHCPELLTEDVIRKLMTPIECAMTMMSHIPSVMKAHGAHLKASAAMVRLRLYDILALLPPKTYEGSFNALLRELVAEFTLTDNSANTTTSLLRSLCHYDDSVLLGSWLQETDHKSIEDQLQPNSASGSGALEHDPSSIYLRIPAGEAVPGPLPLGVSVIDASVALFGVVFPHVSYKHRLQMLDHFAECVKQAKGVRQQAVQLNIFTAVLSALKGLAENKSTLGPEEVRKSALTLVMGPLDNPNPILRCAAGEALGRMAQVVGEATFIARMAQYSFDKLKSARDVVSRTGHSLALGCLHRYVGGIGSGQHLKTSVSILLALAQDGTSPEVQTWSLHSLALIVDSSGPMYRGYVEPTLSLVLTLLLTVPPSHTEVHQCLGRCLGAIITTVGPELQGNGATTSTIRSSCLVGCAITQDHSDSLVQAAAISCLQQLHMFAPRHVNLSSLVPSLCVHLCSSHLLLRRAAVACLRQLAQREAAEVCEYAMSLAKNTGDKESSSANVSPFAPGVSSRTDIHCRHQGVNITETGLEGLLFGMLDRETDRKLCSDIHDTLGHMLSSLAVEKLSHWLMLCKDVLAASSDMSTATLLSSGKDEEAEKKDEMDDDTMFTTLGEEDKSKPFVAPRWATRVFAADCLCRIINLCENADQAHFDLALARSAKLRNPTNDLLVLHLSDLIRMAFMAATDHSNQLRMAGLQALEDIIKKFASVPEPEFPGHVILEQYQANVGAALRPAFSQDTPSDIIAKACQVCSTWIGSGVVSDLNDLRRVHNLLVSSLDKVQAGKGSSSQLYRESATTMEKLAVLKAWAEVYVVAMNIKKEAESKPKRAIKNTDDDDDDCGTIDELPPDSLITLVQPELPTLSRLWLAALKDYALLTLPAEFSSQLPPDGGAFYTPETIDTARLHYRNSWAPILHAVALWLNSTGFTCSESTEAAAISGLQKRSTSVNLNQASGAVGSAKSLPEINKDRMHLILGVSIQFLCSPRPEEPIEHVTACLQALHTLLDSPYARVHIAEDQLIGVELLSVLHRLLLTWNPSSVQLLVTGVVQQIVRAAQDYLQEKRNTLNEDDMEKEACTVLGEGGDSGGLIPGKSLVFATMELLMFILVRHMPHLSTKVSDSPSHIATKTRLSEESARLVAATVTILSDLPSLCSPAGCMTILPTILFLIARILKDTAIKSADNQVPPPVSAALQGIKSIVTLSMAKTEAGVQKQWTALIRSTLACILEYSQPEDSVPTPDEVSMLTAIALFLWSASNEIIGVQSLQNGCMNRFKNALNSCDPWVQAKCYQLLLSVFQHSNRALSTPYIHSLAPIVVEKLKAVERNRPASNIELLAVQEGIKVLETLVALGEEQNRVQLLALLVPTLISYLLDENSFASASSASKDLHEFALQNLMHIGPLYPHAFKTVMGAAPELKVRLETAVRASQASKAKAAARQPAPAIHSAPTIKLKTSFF
UniProt P51610: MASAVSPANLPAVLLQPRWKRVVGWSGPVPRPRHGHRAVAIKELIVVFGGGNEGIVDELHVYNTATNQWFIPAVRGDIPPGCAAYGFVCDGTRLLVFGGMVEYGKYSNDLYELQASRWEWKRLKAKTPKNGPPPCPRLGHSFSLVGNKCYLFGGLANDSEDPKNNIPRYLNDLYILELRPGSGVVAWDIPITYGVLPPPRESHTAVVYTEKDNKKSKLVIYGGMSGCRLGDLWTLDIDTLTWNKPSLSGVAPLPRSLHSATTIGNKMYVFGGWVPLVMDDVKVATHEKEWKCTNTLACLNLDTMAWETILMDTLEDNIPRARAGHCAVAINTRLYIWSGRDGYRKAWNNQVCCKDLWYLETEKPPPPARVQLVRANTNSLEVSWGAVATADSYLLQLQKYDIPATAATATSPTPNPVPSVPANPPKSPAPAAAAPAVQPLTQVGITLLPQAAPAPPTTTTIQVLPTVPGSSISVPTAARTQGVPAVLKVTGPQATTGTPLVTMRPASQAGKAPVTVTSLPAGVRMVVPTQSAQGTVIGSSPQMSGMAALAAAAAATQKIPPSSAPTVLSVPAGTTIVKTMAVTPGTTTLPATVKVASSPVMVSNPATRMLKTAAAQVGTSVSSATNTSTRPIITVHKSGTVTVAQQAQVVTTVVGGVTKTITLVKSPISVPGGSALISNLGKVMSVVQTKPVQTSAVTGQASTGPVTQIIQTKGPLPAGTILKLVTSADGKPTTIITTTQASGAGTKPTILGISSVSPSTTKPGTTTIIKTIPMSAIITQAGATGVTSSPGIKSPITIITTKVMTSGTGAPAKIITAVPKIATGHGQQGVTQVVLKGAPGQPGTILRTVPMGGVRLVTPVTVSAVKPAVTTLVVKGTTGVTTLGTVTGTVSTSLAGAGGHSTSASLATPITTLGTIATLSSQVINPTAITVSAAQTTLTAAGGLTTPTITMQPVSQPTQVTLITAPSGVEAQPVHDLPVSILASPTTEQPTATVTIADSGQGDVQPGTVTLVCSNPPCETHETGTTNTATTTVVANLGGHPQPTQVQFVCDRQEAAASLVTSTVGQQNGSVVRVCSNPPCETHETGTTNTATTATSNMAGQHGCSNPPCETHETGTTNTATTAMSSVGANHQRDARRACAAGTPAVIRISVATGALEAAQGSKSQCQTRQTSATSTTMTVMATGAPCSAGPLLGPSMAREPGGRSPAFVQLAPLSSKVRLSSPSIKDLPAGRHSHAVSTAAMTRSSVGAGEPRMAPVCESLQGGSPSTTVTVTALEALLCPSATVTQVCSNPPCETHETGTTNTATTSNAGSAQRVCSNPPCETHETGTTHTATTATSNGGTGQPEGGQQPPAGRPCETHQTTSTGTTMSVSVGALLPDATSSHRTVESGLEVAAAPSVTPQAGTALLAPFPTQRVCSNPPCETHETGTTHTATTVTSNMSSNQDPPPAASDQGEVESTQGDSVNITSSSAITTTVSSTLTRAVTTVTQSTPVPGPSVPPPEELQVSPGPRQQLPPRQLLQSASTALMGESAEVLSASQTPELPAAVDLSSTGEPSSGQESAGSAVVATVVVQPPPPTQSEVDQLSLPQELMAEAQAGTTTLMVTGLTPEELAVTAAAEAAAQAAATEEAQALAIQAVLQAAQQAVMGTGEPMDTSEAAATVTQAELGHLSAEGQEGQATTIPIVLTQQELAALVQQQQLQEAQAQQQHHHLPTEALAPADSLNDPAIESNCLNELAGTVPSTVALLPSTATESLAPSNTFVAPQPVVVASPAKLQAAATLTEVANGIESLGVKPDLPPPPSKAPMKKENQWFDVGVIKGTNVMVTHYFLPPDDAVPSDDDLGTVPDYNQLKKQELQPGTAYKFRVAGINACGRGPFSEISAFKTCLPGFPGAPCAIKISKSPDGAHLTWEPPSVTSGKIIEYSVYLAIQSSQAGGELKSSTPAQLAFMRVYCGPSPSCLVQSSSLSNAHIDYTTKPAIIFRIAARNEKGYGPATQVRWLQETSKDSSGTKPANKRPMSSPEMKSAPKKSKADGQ
UniProt P04222, whole entry, looked up: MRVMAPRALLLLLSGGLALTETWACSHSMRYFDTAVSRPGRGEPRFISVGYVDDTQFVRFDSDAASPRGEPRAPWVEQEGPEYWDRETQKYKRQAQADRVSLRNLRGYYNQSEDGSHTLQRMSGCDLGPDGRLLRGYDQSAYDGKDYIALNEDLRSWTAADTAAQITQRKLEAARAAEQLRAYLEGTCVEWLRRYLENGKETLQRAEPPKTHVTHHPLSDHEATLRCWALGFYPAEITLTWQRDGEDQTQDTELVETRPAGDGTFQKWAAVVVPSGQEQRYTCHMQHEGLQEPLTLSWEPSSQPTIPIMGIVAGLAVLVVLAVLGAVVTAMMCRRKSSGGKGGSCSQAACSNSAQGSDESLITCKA

Compound: CC1Cc2ccccc2N1C(=O)C1CCCN(C1)C(=O)CCl (mixture of isomers) [TRIM25 ligand 11 (diastereomer mixture)]
Experiment: probe-labelled cysteine peptide fold change vs DMSO (competition) (log2 fold change); higher = less target engagement (more negative = stronger competition)
Details: THP-1, incubation time: 4 h
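Also: competitive chemoproteomic profiling in live THP-1 cells with an iodoacetamide desthiobiotin (IA-DTB) probe, comparing probe-labelled peptide intensities in compound-treated cells against DMSO-treated controls.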

| Target | probe-labelled cysteine peptide fold change (10 µM) | probe-labelled cysteine peptide fold change (50 µM) |
| --- | --- | --- |
| HLTF_Q14527_896_VESIQCFQNTEAGSPTIMLLSLK (UniProt Q14527) | 0.0523 | -0.00182 |
| HK1_P19367_813_AILQQLGLNSTCDDSILVK (UniProt P19367) | 0.12 | 0.0879 |
| HERC2_O95714_1037_ISSCLDFEQHSR (UniProt O95714) | -0.109 | 0.189 |
| HELZ_P42694_199_YGAQCTSAHSQEELAEWQK (UniProt P42694) | 0.211 | 0.129 |
| HECTD1_Q9ULT8_316_CVLDTMR (UniProt Q9ULT8) | 0.0375 | -0.0646 |
| HELLS_Q9NRZ9_169_ENEDENSSSTNLCVEDLQK (UniProt Q9NRZ9) | -0.199 | -0.275 |
| HIP1_O00291_613_LASTEESMCQLAK (UniProt O00291) | -0.157 | -0.31 |
| HK2_P52789_628_ASGCEGEDVVTLLK (UniProt P52789) | -0.0603 | 0.0614 |
| HERC4_Q5GLZ8_60_HTVFVLDDGTVYTCGCNDLGQLGHEK (UniProt Q5GLZ8) | 0.0766 | -0.129 |
| HERC4_Q5GLZ8_175_YGQLGLGTDCK (UniProt Q5GLZ8) | 0.042 | 0.0507 |
| HCK_P08631_482_MPRPENCPEELYNIMMR (UniProt P08631) | -0.226 | -0.0585 |
| HDAC4_P56524_777_LAVGCVVELVFK (UniProt P56524) | 0.148 | 0.213 |
| HK2_P52789_794_FLSQIESDCLALLQVR (UniProt P52789) | 0.0239 | 0.17 |
| HGS_O14964_185_ACGQIFCGK (UniProt O14964) | -0.0108 | 0.0195 |
| HDAC1_Q13547_12_KVCYYYDGDVGNYYYGQGHPMK (UniProt Q13547) | -0.184 | -0.0664 |
| HENMT1_Q5T8I9_56_KVADLGCGDTSLLR (UniProt Q5T8I9) | -0.078 | -0.0957 |
| HIP1_O00291_220_SVSVTAAGQCR (UniProt O00291) | -0.0445 | 0.00279 |
| HDAC3_O15379_94_SLNAFNVGDDCPVFPGLFEFCSR (UniProt O15379) | -0.0228 | -0.0552 |
| HK1_P19367_834_RAAQLCGAGMAAVVDK (UniProt P19367) | -0.0979 | 0.0581 |
| HK1_P19367_133_NQNVHMESEVYDTPENIVHGSGSQLFDHVAECLGDFMEK (UniProt P19367) | 0.0399 | -0.0719 |
| HECTD4_Q9Y4D8-5_275_LLLLEGGPGSPSCLLGGK (UniProt Q9Y4D8) | 0.101 | 0.145 |
| HCLS1_P14317_470_CHGHFGLFPANYVK (UniProt P14317) | -0.0772 | -0.158 |
| HEATR5B_Q9P2D3_616_AGALCAMR (UniProt Q9P2D3) | 0.0353 | 0.091 |
| HCFC1_P51610_1895_TCLPGFPGAPCAIK (UniProt P51610) | 0.00642 | -0.0805 |
| HCK_P08631_395_AANILVSASLVCK (UniProt P08631) | 0.0799 | 0.0391 |

| Target | probe-labelled cysteine peptide fold change (10 µM) | probe-labelled cysteine peptide fold change (50 µM) |
| --- | --- | --- |
| HLA-A_P01892_125_MYGCDVGSDWR (UniProt P01892) | -0.0353 | -0.0961 |
| HCK_P08631_241_LSVPCMSSK (UniProt P08631) | 0.0783 | -0.0354 |
| HERC5_Q9UII4_468_DWITNMITTCLK (UniProt Q9UII4) | -0.0109 | 0.0155 |
| HDAC10_Q969S8_102_ETQVLGKEELQALSGQFDAIYFHPSTFHCAR (UniProt Q969S8) | 0.167 | -0.202 |
| HLA-C_P04222_345_GGSCSQAASSNSAQGSDESLIACKA (UniProt P04222) | -0.155 | -0.141 |
| HERC2_O95714_33_DGLCGLWNEMVK (UniProt O95714) | -0.029 | 0.0117 |
| HDDC3_Q8N4P3_133_CTPEGWSEHR (UniProt Q8N4P3) | 0.0778 | -0.158 |
| HCFC1_P51610_353_AWNNQVCCK (UniProt P51610) | -0.0303 | 0.0544 |
| HK1_P19367_256_MCINTEWGAFGDDGSLEDIRTEFDREIDR (UniProt P19367) | 0.415 | 0.383 |
| HERC4_Q5GLZ8_248+249_IVYICCGEDHTAALTK (UniProt Q5GLZ8) | 0.0171 | 0.0424 |
| HEATR3_Q7Z4Q2_655_GNYSTDQLCVLDNVK (UniProt Q7Z4Q2) | 0.0496 | -0.071 |
| HGS_O14964_166_APDWVDAEECHR (UniProt O14964) | 0.0587 | 0.013 |
| HDAC7_Q8WUI4_533_HQCSCGDNSR (UniProt Q8WUI4) | 0.42 | 0.18 |
| HEATR5B_Q9P2D3_1166_KLCSDIHDTLGHMLSSLAVEK (UniProt Q9P2D3) | -0.144 | -0.337 |
| HDAC4_P56524_669_HQCTCGSSSSHPEHAGR (UniProt P56524) | 0.168 | 0.143 |
| HEATR5A_Q86XA9_1635_QIICAAQEHVK (UniProt Q86XA9) | -0.123 | -0.0121 |
| HDAC6_Q9UBN7_539_PATEAELLTCHSAEYVGHLR (UniProt Q9UBN7) | 0.254 | -0.00904 |
| HDHD3_Q9BSH5_109_DFSHPCTWQVLDGAEDTLR (UniProt Q9BSH5) | 0.124 | -0.0467 |
| HDAC6_Q9UBN7_407_ALAEGVSASLHTLLGDPCPMLESPGAPCR (UniProt Q9UBN7) | 0.00604 | -0.069 |
| HDAC10_Q969S8_663_MLQCHPHLVA (UniProt Q969S8) | -0.134 | 0.0418 |
| HERC2_O95714_3016_VYACGEATNGR (UniProt O95714) | 0.209 | -0.026 |
| HK3_P52790_190_CSGVEGQDVVQLLR (UniProt P52790) | 0.136 | -0.102 |
| HBS1L_Q9Y450_84_LYSCLDHMR (UniProt Q9Y450) | -0.105 | -0.228 |
| HERC4_Q5GLZ8_392_CPNPTK (UniProt Q5GLZ8) | 0.045 | -0.0661 |

Pulled one by one from the list above:

| Target | probe-labelled cysteine peptide fold change (10 µM) | probe-labelled cysteine peptide fold change (50 µM) |
| --- | --- | --- |
| HERC4_Q5GLZ8_248+249_IVYICCGEDHTAALTK (UniProt Q5GLZ8) | 0.0171 | 0.0424 |
| HEATR5A_Q86XA9_1635_QIICAAQEHVK (UniProt Q86XA9) | -0.123 | -0.0121 |
| HDAC4_P56524_669_HQCTCGSSSSHPEHAGR (UniProt P56524) | 0.168 | 0.143 |
